According to patent US20220288219A1:
Positions count from the first letter of the chain named. No constants are given. Whether binding was seen depends on the method and setting. Some binding calls cover weakened binding; strength is not graded here. Each block holds one binder with its values, some of them ahead of it.

Sequences of proteins named here, by UniProt entry; tags and fusion partners are left off. A change or cut given only in a name is not applied to a line headed by its entry. Residues count along the entry.
UniProt P20273: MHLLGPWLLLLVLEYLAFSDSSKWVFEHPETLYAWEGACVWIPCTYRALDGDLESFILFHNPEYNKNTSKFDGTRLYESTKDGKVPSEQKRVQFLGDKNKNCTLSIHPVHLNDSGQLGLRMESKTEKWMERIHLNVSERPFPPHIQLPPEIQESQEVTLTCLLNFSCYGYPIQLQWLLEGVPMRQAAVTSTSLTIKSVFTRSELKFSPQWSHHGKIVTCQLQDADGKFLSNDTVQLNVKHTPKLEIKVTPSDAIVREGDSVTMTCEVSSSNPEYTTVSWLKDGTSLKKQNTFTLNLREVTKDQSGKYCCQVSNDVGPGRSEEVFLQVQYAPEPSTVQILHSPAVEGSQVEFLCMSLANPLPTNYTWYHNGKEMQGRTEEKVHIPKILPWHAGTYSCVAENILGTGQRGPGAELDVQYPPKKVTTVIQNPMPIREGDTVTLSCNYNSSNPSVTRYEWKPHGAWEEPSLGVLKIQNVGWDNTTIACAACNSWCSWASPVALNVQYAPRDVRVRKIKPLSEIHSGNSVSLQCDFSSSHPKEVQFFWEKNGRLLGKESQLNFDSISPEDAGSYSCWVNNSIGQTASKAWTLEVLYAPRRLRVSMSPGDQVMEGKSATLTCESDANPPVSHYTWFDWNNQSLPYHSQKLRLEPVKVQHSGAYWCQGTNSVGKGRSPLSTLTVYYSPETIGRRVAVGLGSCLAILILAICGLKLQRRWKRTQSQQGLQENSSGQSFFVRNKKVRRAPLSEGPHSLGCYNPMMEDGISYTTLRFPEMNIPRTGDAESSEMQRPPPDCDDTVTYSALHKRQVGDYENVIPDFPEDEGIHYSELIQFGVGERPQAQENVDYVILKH
cell surface CD22 on Ramos (CD22+) cells: residues 20-847 of P20273
CD22 Protein (His Tag), Sino Biological Cat. No. 11958-H08H: residues 20-687 of P20273

What was measured:
[1] = biological target: CD22 Protein (His Tag), Sino Biological Cat. No. 11958-H08H (UniProt P20273); test: BLI, IgG on anti-human Fc sensor, 50 nM CD22
[2] = biological target: CD22 (Acro Biosystems, Cat #CD2-H52H8) (UniProt P20273); test: BLI, IgG on anti-human Fc sensor, 50 nM CD22
[3] = biological target: cell surface CD22 on Ramos (CD22+) cells (human) (UniProt P20273); test: flow cytometry on Ramos cells

binding [1]: binds
binding [2]: binds
binding [3]: binds
B1: MYT1331 (antibody, V domains shown)
VH: EVQLVESGGGLVQPGGSLRLSCAASGYEFSRSWMNWVRQAPGKGLEWVGRIYPGDGDTNYSGKFKGRFTISADTSKNTAYLQMNSLRAEDTAVYYCARDGSSWDWYHDVWGQGTLVTVSS
VL: DIQMTQSPSSLSASVGDRVTITCRSSQSIVHSVGNTFLEWYQQKPGKAPKLLIYKVSNRFSGVPSRFSGSGSGTDFTLTISSLQPEDFATYYCFQGSQFPYTFGQGTKVEIK

binding [1]: binds
binding [3]: binds
B2: MYT4405 (antibody, V domains shown)
VH: EVQLVQSGAEVKKPGASVKVSCKASGYRFTHYWIHWVRQAPGQGLEWIGGINPGNNYATYRRKFQGRVTMTADTSTSTVYMELSSLRSEDTAVYYCTREGYGHYGAWFAYWGQGTLVTVSS
VL: DVQVTQSPSSLSASVGDRVTITCRSSQSLANSYGNTFLSWYLHKPGKAPQLLIYGISNRFSGVPDRFSGSGSGTDFTLTISSLQPEDFATYYCLQGTHQPYTFGQGTKVEIK

binding [1]: binds
binding [3]: binds
B3: MYT4424 (antibody, V domains shown)
VH: B2 VH with T59H
VL: B2 VL
